# Experimental data published in ChEMBL document CHEMBL4296182, “CO-ADD screening of NIH NCI Diversity Set V”.
# This is one part of the list. Potency and affinity values are given separately.
# System: Pseudomonas aeruginosa
# Conditions: Concentration 20 uM; ASSAY_TEST Inhibition of Bacterial Growth; detection method Absorption (OD600); MEDIA CAMHB; plate type 384well; NBS; CORNING #3640; time 18 hr
row,Structure (SMILES),Inhibition [%]
1,c1ccc2c(c1)Sc1ccccc1N2CC1CN2CCC1CC2 (configuration not stated) [MEQUITAZINE],31.41
2,CNC(=O)Oc1ccc(N(C)C)cc1C(C)C,19.58
3,O=C1CC(c2ccc(O)cc2)Oc2cc(O)cc(O)c21 (configuration not stated),-0.63
4,COc1ccc2c3c1O[C@H]1C[C@@H](O)C=C[C@@]31CCN(C)C2 [GALANTAMINE],-12.81
5,C=C1C/C(=C/C)C(=O)O[C@@H]2CCN3CC=C(COC(=O)[C@]1(C)O)[C@H]23 [SENECIPHYLLINE],15.22
6,CCCCOP(=O)(OCCCC)C1(C)CC(=O)CC(C)(C)C1 (configuration not stated),10.08
7,CCN1CC2C3CCC(C)(O3)C2C1 (configuration not stated),17.69
8,NC(=O)c1ccc(C(=O)Nc2ccc([As](=O)(O)O)cc2)cc1,28.48
9,CC(=O)Nc1cccc([As](=O)(c2cccc(NC(C)=O)c2)c2cccc(NC(C)=O)c2)c1,-5.34
10,C[C@]12CC[C@@H]3c4ccc(OC(=O)N(CCCl)CCCl)cc4CC[C@H]3[C@@H]1CC[C@@H]2O [ESTRAMUSTINE],-10.11
11,CCC1CCC(C)N(N=O)C1 (configuration not stated),3.2
12,O=C1NC(=O)C(=Cc2csc3ccccc23)C(=O)N1,3.3
13,CN1CCc2cc3c(cc2C1)OCO3,14.65
14,O=C(O)CCCC[C@@H]1SC[C@@H]2NC(=O)N[C@@H]21 [BIOTIN],13
15,SC1=NC2(CCCCC2)NC12CCCCC2,0.59
16,Cc1ccccc1NC(=O)Oc1cccc(OC(=O)c2ccccc2)c1,22.67
17,COc1c(OP2(=S)OCC(C)(C)CO2)cnn(C2CCCCC2)c1=O,24.59
18,CC(=O)OC1CCC2(C)C(CCC3C2CC(=O)C2(C)C3CC(N3CC3)C2C(C)=O)C1 (configuration not stated),16.41
19,C(=C\c1ccncc1)/c1ccncc1,25.67
20,O=P(Oc1ccccc1)(Oc1ccccc1)c1ccccc1,0.83
21,C=CCCC1(C2=CCCCC2)C(=O)NC(=O)NC1=O,14.38
22,CC(C)OC1CCCC(O)C1CC(=O)O (configuration not stated),0.35
23,Cc1ccccc1-n1c(/C=C\c2ccccn2)nc2ccccc2c1=O,28.69
24,COc1ccc(C2=CC(c3ccc(OC)c(OC)c3)c3c(c4ccccc4oc3=O)O2)cc1OC (configuration not stated),14.97
25,O=S(=O)(F)c1ccc2nc(-c3cccc(Sc4ccccc4)c3)cc(Cl)c2c1,9.97
26,OCC1CN1C1CCCCC1 (configuration not stated),8.57
27,COC(=O)c1nc(-c2ccc3c(n2)C(=O)C(N)=C(OC)C3=O)c(N)c(-c2ccc(OC)c(OC)c2O)c1C,12.57

# Look-ups from the results shown:
# Entry for SC1=NC2(CCCCC2)NC12CCCCC2 under Inhibition [%]: 0.59
# Entry for O=P(Oc1ccccc1)(Oc1ccccc1)c1ccccc1 under Inhibition [%]: 0.83
